Consider two molecules from paper PMC4872746.

Chains of the proteins cited; added tags and fusions are not shown.
UniProt P05412: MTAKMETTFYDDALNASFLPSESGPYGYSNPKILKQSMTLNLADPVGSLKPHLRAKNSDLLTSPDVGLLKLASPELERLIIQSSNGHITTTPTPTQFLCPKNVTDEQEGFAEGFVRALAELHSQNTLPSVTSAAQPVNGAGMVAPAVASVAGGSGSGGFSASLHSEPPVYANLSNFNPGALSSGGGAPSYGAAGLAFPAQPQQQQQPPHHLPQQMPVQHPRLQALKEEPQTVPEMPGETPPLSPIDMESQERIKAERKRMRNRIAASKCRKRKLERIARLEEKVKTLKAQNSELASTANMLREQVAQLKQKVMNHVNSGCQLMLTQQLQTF

These are yes or no findings as the source states them, for the method shown. Binding seen in cells or lysates may run through a third protein. Some entries that bind do so weakly or less than the wild type. For some assays here: Tags and fused reporters may be left off the sequences shown.

For experiment [1], the target named is His-conjugated c-Jun (UniProt P05412). In words: co-IP; HEK293 cells transfected with HA-TOPK and/or His-c-Jun; c-Jun immunoprecipitated with anti-His antibody, blot with anti-HA and anti-His; lysis buffer 1% Nonidet P-40, 50 mM HEPES pH 7.5.
Experiment [2] concerns the target endogenous c-Jun (human (endogenous in A549)) (UniProt P05412). As to the kind of experiment: co-IP; A549 cell lysates (2 mg) immunoprecipitated with anti-TOPK or anti-c-Jun antibodies, blot with anti-c-Jun or anti-TOPK; protein A-Sepharose 4B; lysis buffer 1% Nonidet P-40, 50 mM HEPES pH 7.5.

B1: HA-tagged TOPK (T-lymphokine-activated killer cell-originated protein kinase) (enzyme, UniProt Q96KB5 1-322)
chain: MEGISNFKTPSKLSEKKKSVLCSTPTINIPASPFMQKLGFGTGVNVYLMKRSPRGLSHSPWAVKKINPICNDHYRSVYQKRLMDEAKILKSLHHPNIVGYRAFTEANDGSLCLAMEYGGEKSLNDLIEERYKASQDPFPAAIILKVALNMARGLKYLHQEKKLLHGDIKSSNVVIKGDFETIKICDVGVSLPLDENMTVTDPEACYIGTEPWKPKEAVEENGVITDKADIFAFGLTLWEMMTLSIPHINLSNDDDDEDKTFDESDFDDEAYYAALGTRPPINMEELDESYQKVIELFSVCTNEDPKDRPSAAHIVEALETDV
B1: the binding result in experiment [1] was “binds”.

B2: endogenous TOPK (T-lymphokine-activated killer cell-originated protein kinase) (enzyme, UniProt Q96KB5 1-322)
chain: B1 chain
For B2, the binding entry in experiment [2] is “binds”.
